Assay results as given in patent publication EP1131073B1, “USE OF STAUROSPORINE DERIVATIVES FOR TREATING OCULAR NEOVASCULAR DISEASES” (Novartis AG, priority 1998, dated 2000).

Test system: retinal neovascularization
Test: Oxygen-induced ischemic retinopathy in mice, lectin-stained retinal sections with image analysis
Type: in vivo, C57/BL6J mice
Conditions: 600 mg/kg once a day for 5 days
Description: Ischemic retinopathy is produced in C57/BL6J mice by a method described by Smith et al., Oxygen-induced Retinopathy in the Mouse, Invest. Ophthalmol. Vis. Sci. 35, 101-111 (1994). Seven-day-old mice and their mothers are placed in an airtight incubator and exposed to an atmosphere of 75 ± 3% oxygen for 5 days. Incubator temperature is maintained at 23 ± 2°C, and oxygen is measured every 8 hours with an oxygen analyzer. After 5 days, the mice are removed from the incubator, placed in room air, and subjected to a drug treatment. N-benzoyl-staurosporine (NBS) is dissolved in dimethyl sulfoxide (DMSO) and diluted to final concentrations with water; the maximum concentration of DMSO is 1%. Vehicle (1% DMSO) or vehicle containing various concentrations of the drug (volume = 10 µl per gram body weight) is placed in the stomach by gavage. Different mice are given 60, 300 or 600 mg of NBS per kg of body weight. As a control, a group of mice are given the vehicle without NBS. […]
To perform quantitative assessments, 10 µm serial sections are cut through half of each eye and sections roughly 50-60 µm apart are stained with lectin, providing 13 sections per eye for analysis. […] Image-Pro Plus software (Media Cybernetics, Silver Spring, MD) is used to delineate lectin-stained cells on the surface of the retina and their area is measured. […]

**Q.** For `CO[C@@H]1[C@H](N(C)C(=O)c2ccccc2)C[C@H]2O[C@]1(C)n1c3ccccc3c3c4c(c5c6ccccc6n2c5c31)C(=O)NC4` [NBS, N-benzoyl-staurosporine], which “inhibition of neovascularization (endothelial cells on the surface of the retina, high magnification)” value is on record?
**A.** Its value is “complete inhibition”.
